# HELM strings list residues between dots; [ac] is acetyl, [am] amide, other brackets name non-standard units.
# Experiment: general procedure: Fmoc solid-phase peptide synthesis; 2-Cl-Trt; DIPCDI and HOBt
# Details: whole synthesis, scale 0.25 g of 2-Cl-Trt resin ([…]), TFA salt for NMR; acetate salts for in vitro and in vivo studies
row,Substance,crude mass [g]
1,"PEPTIDE1{P.C.K.N.F.[Msa].[dW].K.T.F.T.S.C.K}$PEPTIDE1,PEPTIDE1,2:R3-13:R3$$$V2.0",0.56
2,"PEPTIDE1{P.C.K.N.[Msa].F.[dW].K.T.F.T.S.C.K}$PEPTIDE1,PEPTIDE1,2:R3-13:R3$$$V2.0",0.53
3,"PEPTIDE1{[Oct].P.C.K.N.F.[Msa].[dW].K.T.F.T.S.C.K}$PEPTIDE1,PEPTIDE1,3:R3-14:R3$$$V2.0",0.50
4,"PEPTIDE1{[Oct].P.C.K.N.[Msa].F.[dW].K.T.F.T.S.C.K}$PEPTIDE1,PEPTIDE1,3:R3-14:R3$$$V2.0",0.55
5,"PEPTIDE1{[Oct].P.C.K.N.[Msa].F.[dW].K.T.F.T.S.C}$PEPTIDE1,PEPTIDE1,3:R3-14:R3$$$V2.0",0.53

# Source: paper PMC7994712 (Nature Communications, 2021)
